In publication PMC12101078:
Positions count from the first letter of the chain named. Numbers in names are those of the source. These are yes or no findings as the source states them, for the method shown. Binding seen in cells or lysates may run through a third protein. Some results given as binding are weak or reduced against the parent protein; the word gives no strength. For some assays here: Tags and fused reporters may be left off the sequences shown. Values belong to the binder of their own block, whether it stands above or below them.

Assays:
Assay in all cases: co-IP; crude membrane fraction of yeast solubilised with 1% DMNG in 50 mM Tris-HCl pH 7.4, 200 mM NaCl, 1 mM EDTA; tagged protein isolated 2 h at 4°C on anti-HA, anti-V5 or anti-Myc magnetic beads, washed with 0.02% DMNG; Pex30 detected by immunoblot with anti-Pex30
[1] = target: T1, Pex29-V5 (S. cerevisiae) (UniProt Q03370)
T1 sequence: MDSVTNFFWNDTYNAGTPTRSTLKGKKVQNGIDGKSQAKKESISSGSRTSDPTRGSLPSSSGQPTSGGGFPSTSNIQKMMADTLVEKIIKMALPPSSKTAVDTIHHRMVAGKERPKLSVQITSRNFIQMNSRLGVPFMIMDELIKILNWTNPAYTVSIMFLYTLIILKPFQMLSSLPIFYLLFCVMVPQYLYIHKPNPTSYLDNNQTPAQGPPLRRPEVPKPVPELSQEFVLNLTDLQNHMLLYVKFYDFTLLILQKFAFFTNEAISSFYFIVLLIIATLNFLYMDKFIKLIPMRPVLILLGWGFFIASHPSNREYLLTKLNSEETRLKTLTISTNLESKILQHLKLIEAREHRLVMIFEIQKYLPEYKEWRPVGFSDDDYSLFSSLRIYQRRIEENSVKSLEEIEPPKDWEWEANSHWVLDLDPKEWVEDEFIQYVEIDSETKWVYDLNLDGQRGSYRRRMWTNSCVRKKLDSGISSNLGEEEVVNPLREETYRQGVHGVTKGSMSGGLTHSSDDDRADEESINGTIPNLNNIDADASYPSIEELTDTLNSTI

[2] = target: T2, Pex28-13xMyc (S. cerevisiae) (UniProt P38848)
T2 sequence: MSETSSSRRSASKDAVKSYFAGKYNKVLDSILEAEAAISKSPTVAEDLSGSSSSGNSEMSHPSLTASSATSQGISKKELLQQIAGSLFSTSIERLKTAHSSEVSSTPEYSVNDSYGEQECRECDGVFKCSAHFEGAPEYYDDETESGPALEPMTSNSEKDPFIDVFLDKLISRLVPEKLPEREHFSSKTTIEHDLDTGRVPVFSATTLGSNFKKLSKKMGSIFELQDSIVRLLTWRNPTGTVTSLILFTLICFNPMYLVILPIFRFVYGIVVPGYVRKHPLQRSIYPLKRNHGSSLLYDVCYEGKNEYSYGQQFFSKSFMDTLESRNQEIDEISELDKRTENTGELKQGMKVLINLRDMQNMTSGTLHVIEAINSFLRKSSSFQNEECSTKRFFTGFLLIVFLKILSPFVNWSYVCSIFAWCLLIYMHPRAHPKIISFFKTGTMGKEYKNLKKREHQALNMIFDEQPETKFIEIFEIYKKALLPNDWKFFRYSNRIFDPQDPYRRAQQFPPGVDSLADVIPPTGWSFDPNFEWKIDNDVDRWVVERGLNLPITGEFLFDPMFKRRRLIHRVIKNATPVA

[3] = target: T3, Pex32-3xHA (S. cerevisiae) (UniProt P38292)
T3 sequence: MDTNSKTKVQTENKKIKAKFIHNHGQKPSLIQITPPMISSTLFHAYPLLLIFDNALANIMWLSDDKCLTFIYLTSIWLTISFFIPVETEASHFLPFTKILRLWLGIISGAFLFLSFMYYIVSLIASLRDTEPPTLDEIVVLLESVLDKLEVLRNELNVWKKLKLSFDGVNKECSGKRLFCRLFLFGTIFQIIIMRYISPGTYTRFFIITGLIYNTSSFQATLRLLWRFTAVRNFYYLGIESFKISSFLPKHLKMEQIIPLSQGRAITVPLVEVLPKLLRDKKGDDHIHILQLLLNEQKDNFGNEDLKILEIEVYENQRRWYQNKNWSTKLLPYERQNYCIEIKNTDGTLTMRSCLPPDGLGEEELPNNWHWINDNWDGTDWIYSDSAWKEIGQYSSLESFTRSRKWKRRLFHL

binding [1]: binds
binding [2]: binds
binding [3]: binds
B1: Pex30 (protein, UniProt Q06169 1-523)
chain: MSGNTTNVHETRAKFAETLQPRIGGNTTKVIRAALEKNEAESGVSEDNDNGSLEKVNVATSPLLTSTPPTISKALVKLYPYLILIDEFLNVVTWTGKNIWSSVLMLCLFITTVEYFETLVKYFGHLAIIAILWGYSLLDNYIEGTLSSSPTLEDIALLMNRVSLKSDILLSPMVNLGTQDIQRLLYTTVILSPIYVMITWLLLPPRSLMLMVGMFLLTYHSPWSKVARRLLWKFKIVRLLVFYVTGLDLGGINKDQGIFATVQKQVKKLASTENSNGVLSDSKPIRFTYVLYENQRRWLGIGWKPSMLSYERTPWTDEFLNEAPSPENFHLPEETNTMVWRWVDKTWRLDMTNDGAIQVPNSKARTSADPSPDEGFIYYDNTWKKPSKEDSFSKYTRRRRWVRTAELVKTSDFDESVINSNRNSAIEQKVEENSTNGLTAEQELGSNKQEKDNAKKVGEPTTEETKEFAEASNINEGEFERISSTDEEVLKSRARDRLAKVLDDTEEKEQSNPTIGRDSKKAV

binding [1]: binds
B2: Pex30^S446A (protein, UniProt Q06169 1-523)
chain: B1 chain with S446A

binding [1]: binds
B3: Pex30^S446D (protein, UniProt Q06169 1-523)
chain: B1 chain with S446D
